No constants are given. Whether binding was seen depends on the method and setting. Binding seen in cells or lysates may run through a third protein. Here binding means that the protein was enriched with, or labelled near, the bait; the list need not be complete.
Target: T1, CUEDC2 (CUE domain containing 2), over-expressed in HEK-293FT cells (UniProt Q9H467)
T1 sequence: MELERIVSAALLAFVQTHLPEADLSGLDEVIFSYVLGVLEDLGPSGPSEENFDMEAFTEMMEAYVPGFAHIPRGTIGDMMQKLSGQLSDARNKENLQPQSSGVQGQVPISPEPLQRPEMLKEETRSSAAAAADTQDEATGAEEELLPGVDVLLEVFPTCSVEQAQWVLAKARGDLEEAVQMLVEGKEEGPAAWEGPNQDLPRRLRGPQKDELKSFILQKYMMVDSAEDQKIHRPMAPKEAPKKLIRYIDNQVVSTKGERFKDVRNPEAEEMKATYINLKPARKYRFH
Assay: affinity purification with mass spectrometry; HEK-293FT cells transfected with CUEDC2 or a control plasmid; cell extracts immunoprecipitated with an anti-CUEDC2 antibody; LC-MS/MS

Amino acid sequences for entries named in this document (tags omitted).
UniProt P35222: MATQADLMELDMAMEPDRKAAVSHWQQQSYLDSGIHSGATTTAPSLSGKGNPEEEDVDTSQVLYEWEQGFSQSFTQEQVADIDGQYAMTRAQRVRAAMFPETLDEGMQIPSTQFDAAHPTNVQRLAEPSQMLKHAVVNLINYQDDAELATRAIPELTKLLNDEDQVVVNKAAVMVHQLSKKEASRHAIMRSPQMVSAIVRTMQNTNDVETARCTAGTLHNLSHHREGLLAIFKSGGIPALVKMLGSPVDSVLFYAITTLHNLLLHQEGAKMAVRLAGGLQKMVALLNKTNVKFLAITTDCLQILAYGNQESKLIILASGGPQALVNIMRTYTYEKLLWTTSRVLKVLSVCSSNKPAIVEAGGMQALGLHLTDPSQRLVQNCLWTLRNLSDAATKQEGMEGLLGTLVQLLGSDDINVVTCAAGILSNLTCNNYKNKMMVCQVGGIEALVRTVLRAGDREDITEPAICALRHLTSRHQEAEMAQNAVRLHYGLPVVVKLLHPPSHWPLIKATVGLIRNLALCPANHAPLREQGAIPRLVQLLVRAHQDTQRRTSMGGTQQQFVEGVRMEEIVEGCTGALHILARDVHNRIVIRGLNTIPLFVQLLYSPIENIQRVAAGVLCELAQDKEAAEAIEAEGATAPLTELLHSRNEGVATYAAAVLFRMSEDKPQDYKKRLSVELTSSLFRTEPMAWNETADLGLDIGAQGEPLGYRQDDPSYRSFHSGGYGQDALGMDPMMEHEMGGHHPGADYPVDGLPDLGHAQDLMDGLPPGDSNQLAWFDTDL

binding: binds
Substance: β-catenin, endogenous in HEK-293FT cells (from UniProt P35222 1-781)
